PubChem BioAssay AID504786 – Drosophila RNAi Screening Center, 2011

Aim: 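Fly genes required for HIF-dependent transcription when hypoxia is mimicked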 (primary screen)
Cell system: Drosophila S2 cells with a stable HIF luciferase reporter
Reagent: long dsRNA against Drosophila genes, about 0.2 µg dsRNA per well of a 384-well plate
Timing: three days of knock-down, then 20 h of DFO before reading
Conditions: desferrioxamine (DFO) at 100 µM, an iron chelator that mimics hypoxia, for 20 h
Measurement: 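Firefly luciferase driven by the mouse ldh-a hypoxia-response element, measured after 20 h of 100 µM DFO; z-scores per plate, higher means more signal lost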
Reading the numbers: z-score: higher = stronger loss of HIF reporter signal
The screen tested about 21,000 reagents; shown is a random part of those with a known target gene and a result. 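Primary screen; positive scores mean lost reporter signal, so the sign may be inverted from the usual convention.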 Reagents against one gene are numbered here. Names joined by + are all predicted targets of the reagent. Not all columns of the deposit are shown.

gene knocked down,dsRNA no.,"z-score, replicate 1","z-score, replicate 2","z-score, replicate 3"
LpR2 (Lipophorin receptor 2),1,-0.3,-0.1,
LpR2 (Lipophorin receptor 2),2,-0.4,-0.2,
LpR2 (Lipophorin receptor 2),3,-0.3,-0.6,
LpR2 (Lipophorin receptor 2),4,0.5,-0.5,
Faa (Fumarylacetoacetase),1,-0.3,-0.3,
qin,1,-0.1,0.1,
pst (pastrel),1,-0.3,-0.4,
CG10646,1,-0.6,-0.3,
CG17304 (retired record),1,4.1,4.7,
CG1529,1,-0.1,-0.9,0
"ScsbetaG (Succinyl-coenzyme A synthetase beta subunit, GDP-forming)",1,0,-0.3,
CG31819,1,-0.3,0.5,
CG42729,1,0,0.3,
CG13062,1,0.1,-0.1,
CG17768 + LSm-4,1,1.3,1.5,
CG14654 (retired record),1,-0.5,-0.6,
trpl (transient receptor potential-like),1,-0.4,-0.5,
trpl (transient receptor potential-like),2,-0.1,-0.1,
CG7251,1,-0.3,-0.2,
drongo,1,-0.2,0.5,
eEF1gamma (eukaryotic translation elongation factor 1 gamma),1,4.5,2.8,
CG34423 + Mthfs,1,-0.3,0,
CG8419,1,0,0,
AsnRS (Asparaginyl-tRNA synthetase),1,0.2,2,
CG17574,1,-0.3,-0.7,0.3
CG7164,1,-0.1,-0.1,
Cyp6d4 (Cytochrome P450 6d4),1,-0.2,0,
Ctl1 (Choline transporter-like 1),1,-0.2,-0.2,
CG7084,1,-0.3,-0.5,
natalisin,1,0.9,-0.3,
natalisin,2,0.1,0,
mthl9 (methuselah-like 9),1,-0.3,-0.4,
CG1738,1,-0.1,0.5,
RnpS1 (RNA-binding protein S1),1,1.1,1.3,
Amy-d + Amy-p,1,-0.3,-0.7,
Mcm3 (Minichromosome maintenance 3),1,-0.1,0.1,
toc (toucan),1,-0.4,-0.3,
toc (toucan),2,-0.3,-0.5,
toc (toucan),3,-0.2,-0.5,
CG4733,1,-1.1,-0.5,

Entries above whose gene name begins with M or m (2):
gene knocked down,dsRNA no.,"z-score, replicate 1","z-score, replicate 2","z-score, replicate 3"
mthl9 (methuselah-like 9),1,-0.3,-0.4,
Mcm3 (Minichromosome maintenance 3),1,-0.1,0.1,

Next records:
gene knocked down,dsRNA no.,"z-score, replicate 1","z-score, replicate 2","z-score, replicate 3"
RYBP (Ring and YY1 Binding Protein),1,-0.1,0,
CG3434,1,-0.3,-0.4,
CG15894,1,-0.2,0.1,
CG15894,2,1.7,2.2,
CG11630,1,-0.3,-0.3,
Cyp313b1 (Cytochrome P450 313b1),1,-0.3,-0.2,
P32,1,-0.2,-0.5,
dUTPase (Deoxyuridine triphosphatase),1,-0.3,-0.8,
Pgcl (Pepsinogen C-like),1,-0.4,0.7,
dpr14 (defective proboscis extension response 14),1,-0.3,-0.2,
CG6938,1,0,0.1,
CG15155,1,1.9,0.4,
CG6665,1,-0.3,-0.4,
CG31465,1,-0.2,-0.3,
Cyp49a1 (Cytochrome P450 49a1),1,0.2,-0.1,
Cyp49a1 (Cytochrome P450 49a1),2,-0.3,-0.5,
ab (abrupt),1,1.4,0.9,
Zyx (Zyxin),1,-0.2,-0.5,
CG32447,1,-0.3,-0.5,
CG32447,2,-0.3,-0.2,
Not3 (CCR4-NOT transcription complex subunit 3),1,-0.3,-0.8,
CG17598,1,-0.3,0.3,
Tes (Testin),1,-0.3,-0.2,
Atg18a (Autophagy-related 18a),1,-0.1,-0.1,
CG8206,1,-0.2,-0.2,
Nckx30C,1,-0.1,-0.2,
Nckx30C,2,-0.1,0.1,
Nckx30C,3,0,0.3,
Nckx30C,4,0.9,2.4,
CG15571,1,-0.2,-0.5,
SPR (Sex peptide receptor),1,-0.6,-0.1,
SPR (Sex peptide receptor),2,0,0.6,
SPR (Sex peptide receptor),3,-0.3,-0.1,
CG33655,1,-0.2,0,
CG11889 + CG11891,1,-0.6,-0.8,
CG11889 + CG11891,2,-0.3,-0.4,
Obp58d (Odorant-binding protein 58d),1,-0.2,0,
hrm (hermes),1,0,-0.8,
Ance-4,1,-0.2,-0.7,
gcl (germ cell-less),1,-0.3,-0.5,
CG5478,1,-0.3,-0.7,
CG13376,1,-0.4,-0.5,
CG8958,1,-0.5,-0.4,
